These results are taken from paper PMC10991284.

Chains of the proteins cited; added tags and fusions are not shown.
UniProt Q92793: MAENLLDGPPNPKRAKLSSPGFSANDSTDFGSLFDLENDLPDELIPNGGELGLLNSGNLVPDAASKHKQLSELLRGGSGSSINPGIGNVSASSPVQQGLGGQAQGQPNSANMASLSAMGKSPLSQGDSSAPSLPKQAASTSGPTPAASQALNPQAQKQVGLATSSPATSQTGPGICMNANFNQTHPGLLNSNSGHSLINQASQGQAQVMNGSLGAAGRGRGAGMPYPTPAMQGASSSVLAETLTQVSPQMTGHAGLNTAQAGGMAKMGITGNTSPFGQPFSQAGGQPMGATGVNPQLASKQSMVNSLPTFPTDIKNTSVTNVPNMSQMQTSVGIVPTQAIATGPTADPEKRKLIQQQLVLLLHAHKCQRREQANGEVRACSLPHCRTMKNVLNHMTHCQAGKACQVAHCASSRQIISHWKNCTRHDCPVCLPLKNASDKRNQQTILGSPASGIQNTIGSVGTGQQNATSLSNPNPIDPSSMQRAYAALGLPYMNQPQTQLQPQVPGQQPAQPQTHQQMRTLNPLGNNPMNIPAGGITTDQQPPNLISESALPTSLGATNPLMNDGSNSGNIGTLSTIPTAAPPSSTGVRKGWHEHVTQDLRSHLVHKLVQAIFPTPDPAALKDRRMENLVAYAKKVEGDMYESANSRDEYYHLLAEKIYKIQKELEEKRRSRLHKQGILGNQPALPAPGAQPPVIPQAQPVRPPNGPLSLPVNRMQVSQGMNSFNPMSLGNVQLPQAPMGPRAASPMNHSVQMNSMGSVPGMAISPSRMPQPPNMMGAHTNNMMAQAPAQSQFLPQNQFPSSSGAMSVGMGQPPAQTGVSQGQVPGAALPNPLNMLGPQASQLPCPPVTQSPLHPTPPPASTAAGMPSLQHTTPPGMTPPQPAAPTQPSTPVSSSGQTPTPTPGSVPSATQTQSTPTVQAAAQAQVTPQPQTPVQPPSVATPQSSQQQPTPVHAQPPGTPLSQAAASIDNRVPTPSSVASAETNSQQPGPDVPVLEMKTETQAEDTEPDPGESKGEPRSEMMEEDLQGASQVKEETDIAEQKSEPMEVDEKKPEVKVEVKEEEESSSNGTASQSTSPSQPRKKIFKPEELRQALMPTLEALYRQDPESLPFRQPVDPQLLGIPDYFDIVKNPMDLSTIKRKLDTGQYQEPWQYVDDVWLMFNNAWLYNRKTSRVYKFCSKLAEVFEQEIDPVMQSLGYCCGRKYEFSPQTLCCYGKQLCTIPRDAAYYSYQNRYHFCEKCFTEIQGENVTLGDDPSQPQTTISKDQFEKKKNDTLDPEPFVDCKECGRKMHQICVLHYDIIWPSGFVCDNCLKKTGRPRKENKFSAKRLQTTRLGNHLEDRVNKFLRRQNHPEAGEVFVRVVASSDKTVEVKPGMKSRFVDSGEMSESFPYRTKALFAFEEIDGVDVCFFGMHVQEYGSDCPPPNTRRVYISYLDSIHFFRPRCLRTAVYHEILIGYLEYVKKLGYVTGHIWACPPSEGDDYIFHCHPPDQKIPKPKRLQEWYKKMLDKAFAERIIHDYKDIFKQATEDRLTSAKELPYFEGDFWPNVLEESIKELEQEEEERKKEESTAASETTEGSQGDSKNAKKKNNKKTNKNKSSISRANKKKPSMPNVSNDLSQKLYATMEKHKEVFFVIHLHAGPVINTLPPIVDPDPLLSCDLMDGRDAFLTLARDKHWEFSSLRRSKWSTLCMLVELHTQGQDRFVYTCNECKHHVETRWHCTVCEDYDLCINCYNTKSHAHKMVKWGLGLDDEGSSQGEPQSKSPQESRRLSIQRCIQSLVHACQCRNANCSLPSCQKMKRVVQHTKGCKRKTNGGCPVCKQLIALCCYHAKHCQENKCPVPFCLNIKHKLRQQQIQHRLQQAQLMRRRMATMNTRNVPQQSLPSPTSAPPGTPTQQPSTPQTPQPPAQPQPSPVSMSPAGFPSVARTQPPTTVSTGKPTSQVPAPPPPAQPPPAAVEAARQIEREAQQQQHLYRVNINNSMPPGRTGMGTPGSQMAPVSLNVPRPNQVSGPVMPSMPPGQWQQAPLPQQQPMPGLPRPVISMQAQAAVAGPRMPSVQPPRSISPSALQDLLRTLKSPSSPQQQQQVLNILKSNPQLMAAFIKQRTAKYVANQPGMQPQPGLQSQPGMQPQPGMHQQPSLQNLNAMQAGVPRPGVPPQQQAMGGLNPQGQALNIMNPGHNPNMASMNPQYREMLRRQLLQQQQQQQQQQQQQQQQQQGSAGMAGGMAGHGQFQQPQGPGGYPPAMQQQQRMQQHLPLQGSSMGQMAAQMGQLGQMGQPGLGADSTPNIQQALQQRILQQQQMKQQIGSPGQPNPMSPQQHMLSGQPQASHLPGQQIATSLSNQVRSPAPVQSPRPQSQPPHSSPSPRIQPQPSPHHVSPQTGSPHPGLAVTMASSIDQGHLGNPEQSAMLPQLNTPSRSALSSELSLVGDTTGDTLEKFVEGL

This assay deals with KMT2D (human (endogenous in OCI-Ly7 and SU-DHL4)) (UniProt O14686). The assay is described as follows: co-IP; endogenous proteins in nuclear extracts of OCI-Ly7 and SUDHL4; 150 mM KCl, 0.1% IGEPAL CA-630; primary antibody (anti-CREBBP or anti-KMT2D) overnight, DynaBeads protein A 1.5 h, 6 washes, immunoblot; control antibody. For orientation: Immunoblotting shows a protein as a band on a membrane.

These are yes or no findings as the source states them, for the method shown. Binding seen in cells or lysates may run through a third protein. Some results given as binding are weak or reduced against the parent protein; the word gives no strength.

Turning to CREBBP (from UniProt Q92793 1-2442), the binding result was “binds”.
